Data as given in article PMC4822050, “Hemi-methylated DNA opens a closed conformation of UHRF1 to facilitate its histone recognition” (Nature Communications, 2016).
Residue numbers refer to the chain shown, from its start. Numbers in names are those of the source.

B1: UHRF1∆627-674: spacer deletion mutant of UHRF1 (residues 627–674 deleted) (protein)
chain: MWIQVRTMDGRQTHTVDSLSRLTKVEELRRKIQELFHVEPGLQRLFYRGKQMEDGHTLFDYEVRLNDTIQLLVRQSLVLPHSTKERDSELSDTDSGCCLGQSESDKSSTHGEAAAETDSRPADEDMWDETELGLYKVNEYVDARDTNMGAWFEAQVVRVTRKAPSRDEPCSSTSRPALEEDVIYHVKYDDYPENGVVQMNSRDVRARARTIIKWQDLEVGQVVMLNYNPDNPKERGFWYDAEISRKRETRTARELYANVVLGDDSLNDCRIIFVDEVFKIERPGEGSPMVDNPMRRKSGPSCKHCKDDVNRLCRVCACHLCGGRQDPDKQLMCDECDMAFHIYCLDPPLSSVPSEDEWYCPECRNDASEVVLAGERLRESKKKAKMASATSSSQRDWGKGMACVGRTKECTIVPSNHYGPIPGIPVGTMWRFRVQVSESGVHRPHVAGIHGRSNDGAYSLVLAGGYEDDVDHGNFFTYTGSGGRDLSGNKRTAEQSCDQKLTNTNRALALNCFAPINDQEGAEAKDWRSGKPVRVVRNVKGGKNSKYAPAEGNRYDGIYKVVKYWPEKGKSGFLVWRYLLRRDDDEPGPWTKEGKDRIKKLGLTMQYPEGYLEALANREREKENSKSLTAQQSSLIREDKSNAKLWNEVLASLKDRPASGSPFQLFLSKVEETFQCICCQELVFRPITTVCQHNVCKDCLDRSFRAQVFSCPACRYDLGRSYAMQVNQPLQTVLNQLFPGYGNGR
modifications: left off: GST, end not stated, cleaved
B2: UHRF1D334A&∆627-674: UHRF1 with mutation D334A and deletion of residues 627–674 (protein)
chain: B1 chain with D334A
modifications: left off: GST, end not stated, cleaved
B3: TTD: tandem Tudor domain of human UHRF1 (residues 134–285) (protein, UniProt Q96T88 134-285, looked up, fragment)
chain: LYKVNEYVDARDTNMGAWFEAQVVRVTRKAPSRDEPCSSTSRPALEEDVIYHVKYDDYPENGVVQMNSRDVRARARTIIKWQDLEVGQVVMLNYNPDNPKERGFWYDAEISRKRETRTARELYANVVLGDDSLNDCRIIFVDEVFKIERPGE
modifications: tandem Tudor domain
B4: SpacerK648D: mutation K648D of the Spacer (protein)
chain: PGPWTKEGKDRIKKLGLTMQYPEGYLEALANREREKENSKREEEEQQEGGFASPRTGKGKWDRKSAGGGPSRAGSPRRTSKKTKVEPY
modifications: left off: GST, end not stated, cleaved
notes: mutation K648D of the Spacer
B5: SpacerR649A: mutation R649A of the Spacer (protein)
chain: B4 chain with D62K, R63A
modifications: left off: GST, end not stated, cleaved
notes: mutation R649A of the Spacer
B6: SpacerS651D: mutation S651D of the Spacer (protein)
chain: B4 chain with D62K, S65D
modifications: left off: GST, end not stated, cleaved
notes: mutation S651D of the Spacer
B7: TTD–PHD: human UHRF1 residues 134–366 (protein)
chain: LYKVNEYVDARDTNMGAWFEAQVVRVTRKAPSRDEPCSSTSRPALEEDVIYHVKYDDYPENGVVQMNSRDVRARARTIIKWQDLEVGQVVMLNYNPDNPKERGFWYDAEISRKRETRTARELYANVVLGDDSLNDCRIIFVDEVFKIERPGEGSPMVDNPMRRKSGPSCKHCKDDVNRLCRVCACHLCGGRQDPDKQLMCDECDMAFHIYCLDPPLSSVPSEDEWYCPECRND
modifications: left off: GST, end not stated, cleaved
B8: Spacer: C-terminal spacer region of human UHRF1 (residues 587–674) (protein)
chain: B4 chain with D62K
modifications: left off: GST, end not stated, cleaved
B9: SRA–Spacer: human UHRF1 residues 414–674 (protein)
chain: PSNHYGPIPGIPVGTMWRFRVQVSESGVHRPHVAGIHGRSNDGAYSLVLAGGYEDDVDHGNFFTYTGSGGRDLSGNKRTAEQSCDQKLTNTNRALALNCFAPINDQEGAEAKDWRSGKPVRVVRNVKGGKNSKYAPAEGNRYDGIYKVVKYWPEKGKSGFLVWRYLLRRDDDEPGPWTKEGKDRIKKLGLTMQYPEGYLEALANREREKENSKREEEEQQEGGFASPRTGKGKWKRKSAGGGPSRAGSPRRTSKKTKVEPY
modifications: left off: GST, end not stated, cleaved

What was measured:
Assay type in all cases: binding
H3K9me3 peptide (1–17) = assay: ITC, H3K9me3 peptide (1-17) titrated into UHRF1 proteins; settings: for N: ITC stoichiometry; for N / ΔH / ΔS: H3K9me3 in syringe, named protein in cell; for ΔH / ΔS: ITC
Protocol: (§1) For competition ITC experiments: the indicated proteins were pre-incubated with competitive peptide, protein or hm-DNA (at 1:2 molar ratio if not specified) for 10 min followed by ITC measurements as described above. Proteins, DNA and peptides were prepared within ITC buffer containing 10 mM HEPES, pH 8.0, 100 mM NaCl. The data were fitted by software Origin 7.0. All ITC results were summarized in Supplementary Table 2 and raw data were shown in Supplementary Fig. 9.

RFTS^DNMT1 = assay: ITC, RFTS of DNMT1 with SRA or SRA-Spacer
Protocol: as §1

hm-DNA (12 bp) = assay: ITC, hm-DNA titrated into UHRF1 domains; settings: hm-DNA in syringe
Protocol: as §1

Molecule | N (H3K9me3 peptide (1–17)) | ΔH (H3K9me3 peptide (1–17)) | ΔS (H3K9me3 peptide (1–17)) [cal/mol/deg] | N of H3K9me3 binding to the TTD in the presence of the named protein (H3K9me3 peptide (1–17); competition ITC, 1:2) | ΔH of H3K9me3 binding to the TTD in the presence of the named protein (H3K9me3 peptide (1–17); competition ITC, 1:2) [kcal/mol] | ΔS of H3K9me3 binding to the TTD in the presence of the named protein (H3K9me3 peptide (1–17); competition ITC, 1:2) [cal/mol/deg] | further results
B1 | 0.988±0.0133 | -1.004E4±185.3 cal/mol | -7.32 |  |  |  | 
B2 | 0.979±0.02 | -6.173 ± 0.204 kcal/mol | 1.96 |  |  |  | 
B3 | 1.28±0.00794 | -8.136 ± 0.07152 kcal/mol | -0.455 |  |  |  | 
B4 |  |  |  | 1.17±0.0184 | -5.049 ± 0.1182 | 6.41 | 
B5 |  |  |  | 1.13±0.0218 | -6.3 ± 0.1667 | 3.79 | 
B6 |  |  |  | 1.21±0.00447 | -6.184 ± 0.03211 | 5.73 | 
B7 | 0.990±0.00526 | -1.260E4±95.03 cal/mol | -12.0 |  |  |  | 
B8 |  |  |  |  |  |  | N of H3K9me3 binding to TTD–PHD in the presence of the Spacer (H3K9me3 peptide (1–17); competition ITC, 1:2): 0.993±0.00481; ΔH of H3K9me3 binding to TTD–PHD in the presence of the Spacer (H3K9me3 peptide (1–17); competition ITC, 1:2): -8.455 ± 0.05598 kcal/mol; ΔS of H3K9me3 binding to TTD–PHD in the presence of the Spacer (H3K9me3 peptide (1–17); competition ITC, 1:2): -2.54 cal/mol/deg
B9 |  |  |  |  |  |  | ΔH (RFTS^DNMT1; ITC): -4.721 ± 0.317 kcal/mol; ΔS (RFTS^DNMT1; ITC): 7.43 cal/mol/deg; N (RFTS^DNMT1; ITC stoichiometry): 0.749±0.0361; N (hm-DNA (12 bp); ITC stoichiometry): 1.15±0.0175; ΔH (hm-DNA (12 bp); ITC): -4.355 ± 0.09057 kcal/mol; ΔS (hm-DNA (12 bp); ITC): 11.4 cal/mol/deg
